According to patent publication US20260199287A1, “LIPO-HYDROXAMIC ACID DERIVATIVE AND PHARMACEUTICAL USE THEREOF” (MediciBIO Co., Ltd, priority 2022, published 2026):
At least one compound was matched to its structure with a doubt left. Some of these results come from one statement about several compounds together.

Tests used:
[1] = test system: human corneal endothelial cells; assay: Anti-apoptotic effect, CellTiter-Glo 2.0 cell viability assay in corneal dystrophy-like environment; type: cell-based; details: for concentration from which a significant increase in cell viability was observed: compared to control group (corneal dystrophy-mimicking), 24 hours treatment
Protocol: (§1) PriNeu I medium, which is a serum-free medium, was supplemented with 10% fetal bovine serum, human epidermal growth factor (EGF), human vascular endothelial growth factor (VEGF), human insulin, human transferrin, sodium selenite, hydrocortisone, heparin, R estradiol, L-glutamine, penicillin/streptomycin, and G418 (geneticin). Human corneal endothelial cells (purchased from Creative Biolabs (NY, USA)) were seeded onto culture dishes coated with FNC Coating Mix (Athena Environmental Science, MD, USA) and incubated at 37° C. in a humidified 5% CO2 atmosphere.
To establish an intracellular environment similar to that of cells affected by corneal dystrophy (hereinafter referred to as “corneal dystrophy-like environment”), cellular signaling pathways involving reactive oxygen species (ROS) and transforming growth factor-beta (TGF-β), both known to be associated with corneal dystrophy, were activated. Human corneal endothelial cells were first cultured in standard medium for 24 hours, after which the medium was replaced with serum-free PriNeu I medium. The cells were then irradiated at an intensity of 5 J/cm^2 using a UV irradiation (BLX-Link, Vilber, France). Subsequently, the cells were treated with recombinant human TGF-β1 protein at a concentration of 10 ng/ml (Bon Opus, NJ, USA).
In order to identify the effect of the lipo-hydroxamic acid derivative prepared above on apoptosis caused by corneal dystrophy in corneal endothelial cells, human corneal endothelial cells were cultured in the same manner as in Example 3-1. Subsequently, the corneal dystrophy-like environment was induced to trigger apoptosis in the same manner as described in Example 3-2. Afterwards, the samples (Samples 1, 4, and 5) were pretreated for 24 hours, and cell viability was measured via the CellTiter-Glo 2.0 cell viability assay (Promega). The number of viable cells was determined based on intracellular ATP levels, and the luminescence intensity was measured using a GloMax Discover microplate reader (Promega).

[2] = test system: human corneal endothelial cells; assay: In vitro antioxidant activity, ROS-Glo H2O2 assay in corneal dystrophy-like environment; type: cell-based; details: compared to control group (corneal dystrophy-mimicking: UV 5 J/cm^2 + TGF-β1 10 ng/ml); sample 4 h before induction
Protocol: as §1, with “atmosphere. […]” for “atmosphere.”
To determine the effect of the above-prepared lipo-hydroxamic acid derivatives on oxidative stress activity in corneal endothelial cells, human corneal endothelial cells were cultured at 1.5×10^4 cells per well in a 96-well plate coated with FNC Coating Mix for 18 to 24 hours. […] The oxidative stress activity was determined by measuring the level of hydrogen peroxide (hereinafter referred to as “H2O2”) in the cell culture medium using the ROS-Glo™ H2O2 Assay (Promega, WI, USA) according to the manufacturer's instructions. The luminescence intensity was measured using the GloMax® Discover microplate reader (Promega) at an excitation wavelength of 485 nm and an emission wavelength of 520-530 nm.

SMILES | concentration from which a significant increase in cell viability was observed [1] [µM] | cell viability ([1]; at a concentration of 10 μM) | cell viability ([1]; up to a concentration of 1 μM) | oxidative stress (H2O2 level in cell culture medium) [2]
O=C(CCCCC1CCSS1)NC(=O)CCCCC1CCSS1 (centres unmarked) [Sample 4, 5-[1,2]dithiolan-3-yl-pentanoic acid (5-[1,2]dithiolan-3-yl-pentanoyl-amide)] | ≥ 0.3 |  |  | 
O=C(CCCCC1CCSS1)N(O)C(=O)CCCCC1CCSS1 (centres unmarked) [Sample 5, 5-[1,2]dithiolan-3-yl-pentanoic acid (5-[1,2]dithiolan-3-yl-pentanoyl-hydroxy-amide)] | ≥ 0.3 |  |  | 
CO[C@H]1C[C@@H]2CC[C@@H](C)[C@@](O)(O2)C(=O)C(=O)N2CCCC[C@H]2C(=O)O[C@H]([C@H](C)C[C@@H]2CC[C@@H](O)[C@H](OC)C2)CC(=O)[C@H](C)/C=C(\C)[C@@H](O)[C@@H](OC)C(=O)[C@H](C)C[C@H](C)/C=C/C=C/C=C/1C [Sirolimus, reference compound] |  | rather decreased | did not show a significant change | significantly decreased
